Results: the supplement of paper PMC4604168 (melanoma cell lines)
The list shows a part of the results. Single values are uncertain, as repeats are few or missing.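 Imaging used 1,536-well plates; nuclei positive for cleaved PARP by antibody were divided by total DNA-stained nuclei to yield the apoptosis fraction. Doses for screening kept most cells viable, and cell lines differ markedly in resting and induced cleaved-PARP levels.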

How the values were obtained:
Assay in all cases: cleaved PARP positive nuclei fraction relative to DMSO control; melanoma cells; higher = more apoptosis
Settings in all cases: library dose: low library concentration; 72 h
CBRC034 = tested on: CBRC034 (line from a melanoma biopsy)
COLO792 = tested on: COLO792
COLO800 = tested on: COLO800
COLO829 = tested on: COLO829
G361 = tested on: G361
IPC-298 = tested on: IPC-298
IST-MEL1 = tested on: IST-MEL1
LB2518-MEL = tested on: LB2518-MEL
LOXIMVI = tested on: LOXIMVI
MZ2-MEL = tested on: MZ2-MEL
MeWo = tested on: MeWo
RPMI7951 = tested on: RPMI7951
RVH-421 = tested on: RVH-421
SkMel28 = tested on: SkMel28
SkMel30 = tested on: SkMel30
SkMel5 = tested on: SkMel5
UACC257 = tested on: UACC257
UACC62 = tested on: UACC62

Structure (SMILES) | cleaved PARP positive nuclei fraction (CBRC034) | cleaved PARP positive nuclei fraction (COLO792) | cleaved PARP positive nuclei fraction (COLO800) | cleaved PARP positive nuclei fraction (COLO829) | cleaved PARP positive nuclei fraction (G361) | cleaved PARP positive nuclei fraction (IPC-298) | cleaved PARP positive nuclei fraction (IST-MEL1) | cleaved PARP positive nuclei fraction (LB2518-MEL) | cleaved PARP positive nuclei fraction (LOXIMVI) | cleaved PARP positive nuclei fraction (MZ2-MEL) | cleaved PARP positive nuclei fraction (MeWo) | cleaved PARP positive nuclei fraction (RPMI7951) | cleaved PARP positive nuclei fraction (RVH-421) | cleaved PARP positive nuclei fraction (SkMel28) | cleaved PARP positive nuclei fraction (SkMel30) | cleaved PARP positive nuclei fraction (SkMel5) | cleaved PARP positive nuclei fraction (UACC257) | cleaved PARP positive nuclei fraction (UACC62)
O=C(CCCCCCC(=O)Nc1ccccc1)NO [vorinostat] + Cn1cc(/C=C2\C(=O)Nc3cccnc32)c2ccccc21 [GW441756] (first compound 0.08 µM, partner dose 0.4 µM) | 53.3% | 58% | 128% | 99.2% | 95.7% | 84.8% | 45% | 125% | 45.9% | 51.4% | 51.4% | 86.3% | 38.2% | 273% | 19.8% | 64.7% | 70.2% | 40.8%
C[C@]1(c2nc3c(C(N)=O)cccc3[nH]2)CCCN1 [Veliparib] + COC(=O)c1sccc1S(=O)(=O)Nc1ccc(Nc2ccccc2)cc1OC [GSK0660] (first compound 1.4 µM, partner dose 1 µM) | 85.7% | 96.8% | 68% | 190% | 55.7% | 82.4% | 96.1% | 96.4% | 63.6% | 139% | 231% | 70.2% | 103% | 131% | 132% | 255% | 261% | 125%
COCC[n+]1c2c(n(Cc3cnccn3)c1C)C(=O)c1ccccc1C2=O + O=C(O)C(=O)Nc1sc2c(c1C(=O)O)CCNC2 [TCS401] (first compound 0.0004 µM, partner dose 1.66667 µM) | 176% | 72% | 152% | 124% | 68.2% | 35.7% | 48.9% | 88.6% | 114% | 163% | 131% | 102% | 74.6% | 37.3% | 20.7% | 49% | 63.6% | 156%
O=C(Nc1cccc(Cl)c1)Nc1ncc(CCNc2ncnc3ccsc23)s1 + COc1cc2ncnc(Nc3ccc(Oc4ccccc4)cc3)c2cc1OC [SrcI1] (first compound 0.0008 µM, partner dose 2 µM) | 103% | 56.4% | 56.7% | 159% | 120% | 42.8% | 39.9% | 86.4% | 19.6% | 131% | 28.1% | 115% | 50.2% | 82.7% | 65.3% | 79.6% | 45.1% | 117%
C#Cc1cccc(Nc2ncnc3cc(OCCOC)c(OCCOC)cc23)c1 [erlotinib] + Cc1cc([N+](=O)[O-])ccc1NS(=O)(=O)c1cc(Cl)ccc1Cl [FH535] (first compound 0.8 µM, partner dose 1 µM) | 148% | 147% | 104% | 137% | 106% | 224% | 240% | 80.7% | 60.9% | 68.8% | 115% | 50.5% | 60.7% | 164% | 28.3% | 60.6% | 176% | 130%
O=C(Nc1cccc(Cl)c1)Nc1ncc(CCNc2ncnc3ccsc23)s1 + COc1ccc(-c2ccc3c(N4CCOCC4)nc(N4C[C@@H](C)O[C@@H](C)C4)nc3n2)cc1CO [KU0063794] (first compound 0.0008 µM, partner dose 0.02 µM) | 61% | 175% | 219% | 71.3% | 101% | 87.3% | 114% | 81.5% | 41.4% | 108% | 26.2% | 169% | 214% | 148% | 36.4% | 29.2% | 129% | 168%
C#Cc1cccc(Nc2ncnc3cc(OCCOC)c(OCCOC)cc23)c1 [erlotinib] + Oc1cc(-c2nc(-c3ccccc3)[nH]c2-c2ccncc2)ccc1Cl [L779450] (first compound 0.8 µM, partner dose 0.2 µM) | 63.2% | 104% | 20.6% | 103% | 117% | 234% | 120% | 131% | 69.9% | 39% | 108% | 84.1% | 97.5% | 110% | 16.1% | 36.6% | 125% | 85.8%
Nc1cccc2c1CN(C1CCC(=O)NC1=O)C2=O (configuration not stated) [lenalidomide] + O=C(Nc1ccccc1)c1cc([N+](=O)[O-])ccc1Cl [GW9662] (first compound 1 µM, partner dose 2 µM) | 85.2% | 107% | 110% | 110% | 308% | 49.2% | 117% | 96.9% | 120% | 183% | 55.4% | 83.4% | 157% | 227% | 86.6% | 154% | 57% | 133%
COCC[n+]1c2c(n(Cc3cnccn3)c1C)C(=O)c1ccccc1C2=O + Cc1cc([N+](=O)[O-])ccc1NS(=O)(=O)c1cc(Cl)ccc1Cl [FH535] (first compound 0.0004 µM, partner dose 1 µM) | 795% | 74.6% | 148% | 58.3% | 88.6% | 65.9% | 632% | 89.9% | 41.6% | 133% | 80.1% | 86.5% | 106% | 80.1% | 26.3% | 73.1% | 83.8% | 94.8%
